Data published in the supplement of paper PMC3334620.
The full ranking holds about 33,000 sequences; the median of “E-score (-0.5 to 0.5)” is about -0.0059, and the highest 2% start at about 0.26. Some of the results follow.

Target: T1, Cin5 (UniProt P40917)
T1 sequence: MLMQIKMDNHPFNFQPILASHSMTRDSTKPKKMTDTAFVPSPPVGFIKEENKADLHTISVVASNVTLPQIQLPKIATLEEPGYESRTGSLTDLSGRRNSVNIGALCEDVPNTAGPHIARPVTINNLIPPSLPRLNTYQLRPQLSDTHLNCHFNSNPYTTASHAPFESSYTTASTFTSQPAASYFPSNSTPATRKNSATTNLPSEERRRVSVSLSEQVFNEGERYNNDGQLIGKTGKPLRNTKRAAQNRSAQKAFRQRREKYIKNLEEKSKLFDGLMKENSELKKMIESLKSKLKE
Assay: PBM E-score (8-mer binding enrichment) (E-score (-0.5 to 0.5)); higher = stronger / more preferred TF binding
Details: protein concentration: 100 nM; construct: GST-full length
How it was run: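 Bound GST-tagged yeast transcription factors, applied at about 100-200 nM to double-stranded universal all-10-mer Agilent arrays, were detected with fluorescent anti-GST. Scans were normalised with masliner. A modified Wilcoxon-Mann-Whitney statistic, the E-score, was assigned to each ungapped eight-base word pooled with its reverse complement by the Universal PBM Analysis Suite.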

| Sequence | PBM E-score |
| --- | --- |
| ATCAGCTG | 0.0759 |
| CTTCCGAA | -0.0661 |
| AGGACACA | 0.158 |
| GATGACGA | 0.163 |
| TCCTAAAA | -0.341 |
| CACCAGAA | -0.141 |
| TAACCCCA | -0.0196 |
| GCATCGAC | -0.107 |
| CGGCCACC | -0.0965 |
| CCAATGAC | -0.0567 |
| GGAGACGA | 0.0975 |
| CCCTTGCA | -0.345 |
| GCCATGAA | 0.00141 |
| CATACGCG | 0.12 |
| ATGCGGCC | -0.232 |
| GTCAGACA | -0.0591 |
| AATTGCTG | 0.251 |
| ATACCAAC | 0.205 |
| ACACGGCT | 0.00928 |
| ATGAGTCG | -0.00791 |
| GACAGCTA | -0.178 |
| AAACCAAG | 0.0342 |
| ATTCTGGG | 0.0857 |
| CCCGCGGA | 0.208 |
| AAGATACG | -0.00662 |

| Sequence | PBM E-score |
| --- | --- |
| CGCATAAG | 0.0839 |
| CATACTCC | 0.0858 |
| AGTTGCTG | -0.0388 |
| GCTGAAAC | -0.0892 |
| AGACTCGC | -0.228 |
| ACGGGGCA | -0.178 |
| AATGCTGG | 0.126 |
| CATATTAC | 0.287 |
| AATTACTA | 0.212 |
| AATTGCTA | 0.156 |
| CTCCTCCC | -0.279 |
| CCTTACGC | 0.0689 |
| ACCCCCGT | -0.422 |
| ACAGGTTC | -0.125 |
| CGATACCG | 0.0398 |
| AAGTAGGA | -0.0295 |
| CCCATCGA | 0.089 |
| CGATATGA | 0.0193 |
| GTAAGTGA | 0.0922 |
| ACTTGCTA | -0.0171 |
| CATTAAGA | -0.0721 |
| AGCAGCCC | -0.142 |
| ACATAAAG | 0.00631 |
| GGGCTCTA | -0.147 |
| TATGCAGA | 0.0287 |

40 entries from above, as tab-separated lines.
Sequence	PBM E-score
GGAGACGA	0.0975
CCCTTGCA	-0.345
GCCATGAA	0.00141
CATACGCG	0.12
ATGCGGCC	-0.232
GTCAGACA	-0.0591
AATTGCTG	0.251
ATACCAAC	0.205
ACACGGCT	0.00928
ATGAGTCG	-0.00791
GACAGCTA	-0.178
AAACCAAG	0.0342
ATTCTGGG	0.0857
CCCGCGGA	0.208
AAGATACG	-0.00662
CGCATAAG	0.0839
CATACTCC	0.0858
AGTTGCTG	-0.0388
GCTGAAAC	-0.0892
AGACTCGC	-0.228
ACGGGGCA	-0.178
AATGCTGG	0.126
CATATTAC	0.287
AATTACTA	0.212
AATTGCTA	0.156
CTCCTCCC	-0.279
CCTTACGC	0.0689
ACCCCCGT	-0.422
ACAGGTTC	-0.125
CGATACCG	0.0398
AAGTAGGA	-0.0295
CCCATCGA	0.089
CGATATGA	0.0193
GTAAGTGA	0.0922
ACTTGCTA	-0.0171
CATTAAGA	-0.0721
AGCAGCCC	-0.142
ACATAAAG	0.00631
GGGCTCTA	-0.147
TATGCAGA	0.0287

The results go on.

| Sequence | PBM E-score |
| --- | --- |
| ATGCACAG | -0.0493 |
| CAGTCAAC | -0.109 |
| AAAACAGG | -0.14 |
| AGCCTGAG | -0.216 |
| CAGTTTTC | 0.113 |
| AATGTCAA | 0.176 |
| AGACAACC | 0.124 |
| GGTCGGAA | -0.00206 |
| AGGACGTA | -0.102 |
| ACCAGGTC | -0.0582 |
| AGACGAAC | 0.179 |
| CTCTACAC | -0.0485 |
| CATGTGGA | -0.0286 |
| ATCACACC | 0.0416 |
| GGGCTCAC | -0.217 |
| GCCACAAA | 0.0299 |
| ACGAATCT | 0.0397 |
| CAGACCGA | -0.0441 |
| CTTGATCA | 0.0602 |
| CGATTCAA | -0.0893 |
| ATCCGGGA | 0.0228 |
| GCTCTGAA | -0.223 |
| AGTGTCCG | -0.0514 |
| ATAGTCAC | 0.129 |
| AGGATATC | -0.0153 |

| Sequence | PBM E-score |
| --- | --- |
| AAGGTCCC | -0.0985 |
| ACGGTAAC | 0.163 |
| CGGCGCTA | -0.165 |
| ACCAAGGC | -0.149 |
| CAAACCGG | 0.028 |
| CGCAAACG | -0.0563 |
| GCAGATGA | -0.00081 |
| CCTATGTA | 0.0303 |
| AGCAGGTA | -0.0341 |
| GTATAGAC | 0.0156 |
| AGGGTAAC | -0.0521 |
| CGATGAGA | 0.02 |
| ATTAAATA | 0.274 |
| ATACAGGC | -0.0273 |
| CCTGCAAC | -0.0227 |
| ATTATCAG | 0.119 |
| AGATGTAC | 0.08 |
| GGGGGCGA | -0.397 |
| CATGAACG | -0.0517 |
| AGTCTCAC | -0.158 |
| CTGCGTAC | -0.204 |
| CTGGCACC | -0.189 |
| CCCAAGCC | -0.166 |
| AATCGATT | 0.166 |
| CAGCCACA | 0.027 |

| Sequence | PBM E-score |
| --- | --- |
| CCAGATGA | -0.0126 |
| TAGGTCCA | -0.0318 |
| ATTATCAC | 0.234 |
| TATCTTAA | 0.0772 |
| AATACGTA | 0.313 |
| ATAAGGAC | -0.157 |
| CAACGGTA | -0.181 |
| ACACGTGC | -0.113 |
| ACGGGAGC | -0.164 |
| CACAGCAG | 0.0514 |
| TATCGTAA | 0.28 |
| ACCGCGTC | -0.0702 |
| AAAAGCAG | -0.0496 |
| GGTGATAC | 0.0684 |
| ATTAGCAA | 0.235 |
| AAAGGTTA | -0.0742 |
| ACCGCCGC | -0.101 |
| CTAACCTC | -0.058 |
| AGGCCCAT | -0.227 |
| GAGGCCCC | -0.302 |
| AAAGGAAC | 0.0182 |
| GCGCCCAA | 0.0114 |
| TCTATAGA | -0.18 |
| CCGAGAGC | -0.207 |
| GCATGGCA | 0.133 |

| Sequence | PBM E-score |
| --- | --- |
| CACCGCAC | -0.0813 |
| GCGAAACC | 0.0461 |
| ACGGGTAA | 0.0226 |
| CAGCTTGG | 0.188 |
| CAACTTTA | 0.131 |
| GAAACGGC | 0.00767 |
| CCAAGCAC | 0.00692 |
| GCCCGAGA | -0.00433 |
| ATATACAA | 0.266 |
| GATCACAA | 0.17 |
| TATCAAAA | 0.166 |
| ACTACATC | 0.111 |
| CTCGTCAC | -0.0121 |
| GCTAAGCA | 0.0676 |
| CGTTGTAA | -0.0474 |
| GTAAGATA | 0.12 |
| ACCCTGGC | -0.138 |
| CACATTGA | 0.101 |
| ATATGGTA | 0.23 |
| AACGTAGT | -0.0268 |
| GGACGAAC | -0.0519 |
| CCGAATAC | 0.0979 |
| AAATAATG | 0.21 |
| CTCAATTC | 0.106 |
| CTCACGAG | -0.0635 |

Part of the list above, reformatted:
Sequence | PBM E-score
ACTACATC | 0.111
CTCGTCAC | -0.0121
GCTAAGCA | 0.0676
CGTTGTAA | -0.0474

Later entries:

| Sequence | PBM E-score |
| --- | --- |
| AGAGGTTC | 0.0226 |
| ATCATGCA | 0.17 |
| GGTGTTAA | 0.00557 |
| GCCGGTCA | -0.087 |
| CGAGTTAC | 0.193 |
| GCGAAACA | 0.141 |
| ACCATTGC | 0.0233 |
| GTGGGGAA | 0.152 |
| CCTCTTGA | -0.138 |
| GGCCTGTA | -0.124 |
| CTGCGCAC | -0.0989 |
| AAGGCCAT | 0.00834 |
| GTGTGTAA | 0.179 |
| ACGATCGT | 0.0139 |
| AGAACCAC | -0.0472 |
| TATCGGGA | 0.00638 |
| AGTTAGTG | 0.0937 |
| AAATAGAT | 0.297 |
| TGCCAACA | -0.117 |
| AAACCGTG | -0.143 |
| ACTTTTGG | 0.164 |
| TATCCATA | 0.203 |
